Experimental data as given in PubChem BioAssay AID2685 (National Center for Advancing Translational Sciences (NCATS), 2010).
This is one part of the list. Shown are side measurements of this screen, not its main read-out; they come without a call. Most of these compounds were active or inconclusive in the main read-out, so they are no random draw. The note in brackets gives the kind of curve behind each potency; many fits are weak.

Assay: qHTS Assay for Lipid Storage Modulators in Drosophila S3 Cells;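 as to cell number change: cells counted by Cell Tracker Red CMTPX staining in the red channel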
Conditions: BODIPY lipid droplet fluorescence, 18-24 h; for cell number change: measured here: cell count max response, cells fed with added oleic acid
Method in brief: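 Drosophila S3 cells got compounds at several concentrations plus oleic acid (400 uM solution). Laser-scanning cytometry with 488 nm excitation read lipid droplets at 500-530 nm and cells at 575-640 nm. Percent activity was relative to 20 uM Triacsin C.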

[1] = measured here: cell number channel AC50, cells fed with added oleic acid
[2] = measured here: lipid fluorescence (Fed channel) AC50, cells fed with added oleic acid

Row | SMILES | cell number change | AC50 [1] | AC50 [2]
1 | C=C(C)c1ccc(C(C)(C)NC(=O)N(Cc2ccccc2)Cc2ccco2)cc1 | -55.1% | 4.11 µM [falling, full curve] | 29.1 µM [falling, single point]
2 | O=C(CSCc1ccc(Br)cc1)NC1CC1 | -10.1% |  | 
3 | CN(C(=O)OCc1ccccc1)C(CC(N)=O)C(=O)O (stereo not given) | -9.75% |  | 
4 | COc1ccc(CCNc2nc(-c3cccnc3)nc3ccccc23)cc1OC |  |  | 29.1 µM [falling, single point]
5 | COCCCN(C(=S)Nc1cc(Cl)cc(Cl)c1)C(C)c1ccccn1 (stereo not given) | 10.4% |  | 2.31 µM [rising, full curve, poor fit]
6 | Cc1cc(C)c(NC(=O)Cn2c(=O)c3cccn3c3ccccc32)c(C)c1 | 22.8% |  | 29.1 µM [rising, single point]
7 | CC1=C(C)CC(C(=O)NCc2ccc3c(c2)OCO3)C(C(=O)O)C1 (stereo not given) | 0.0235% |  | 29.1 µM [rising, single point]
8 | C=CCNc1nc(N)c(C(=O)c2ccc3c(c2)OCO3)s1 | 83.1% | 20.6 µM [rising, partial curve, poor fit] | 0.82 µM [rising, full curve]
9 | Cc1cc(/C=C2\SC(=Nc3ccc(N4CCOCC4)cc3)N(C)C2=O)c(C)n1-c1cccnc1 | -9.39% |  | 2.31 µM [falling, full curve, poor fit]
10 | CCCCN(C)C(=O)CCC(=O)Nc1ccc2nc(N3CCOCC3)cc(C)c2c1 | -30.9% | 32.6 µM [falling, single point] | 29.1 µM [falling, single point]
11 | Cn1nc(C(=O)N2CCCc3ccccc32)c2ccccc2c1=O | 12% | 3.26 µM [rising, single point] | 
12 | COc1cc2c(cc1OC)C(COc1ccc(C(C)C)cc1)NCC2 (stereo not given) | -4.72% |  | 
13 | CC1(C)CC(O)C(CCC(O)c2ccccc2)C(C)(C)N1 (stereo not given) | -0.104% |  | 29.1 µM [falling, single point]
14 | O=C(CCN1C(=O)/C(=C/C=C/c2ccccc2)SC1=S)Nc1cccnc1 | -70.6% | 14.6 µM [falling, partial curve, poor fit] | 16.4 µM [falling, partial curve]
15 | COC(=O)c1sccc1NC(=O)c1c(-c2ccccc2)noc1C | 3.7% |  | 0.103 µM [falling, full curve, poor fit]
16 | CCOC(OCC)P(=O)(c1ccccc1)c1ccccc1 | -1.08% |  | 0.326 µM [rising, full curve, poor fit]
17 | Cc1ccsc1C(=O)Nc1nnc(-c2ccco2)o1 | -89.8% | 23.1 µM [falling, single point] | 29.1 µM [falling, single point]

One compound at a time, from the list above.
COc1cc2c(cc1OC)C(COc1ccc(C(C)C)cc1)NCC2 (stereo not given) reads cell number change: -4.72%
C=CCNc1nc(N)c(C(=O)c2ccc3c(c2)OCO3)s1 reads cell number change: 83.1%; AC50 [1]: 20.6 µM [rising, partial curve, poor fit]; AC50 [2]: 0.82 µM [rising, full curve]
